Patent US6414031B1, “Bisoximether derivatives, methods and intermediate products for the production thereof, and their use for combating fungicidal pests and animal pests” (BASF Aktiengesellschaft, priority 1998, dated 2002)
Some entries share one result that the patent states for a list of compounds. At least one structure is not confirmed: it was looked up by name or label, or the drawing left a doubt.

Legend:
[1] = system: Puccinia recondita; experiment: Curative activity against Puccinia recondita on wheat (leaf rust); type: in vivo; settings: 1 ppm, wheat sprayed 1 day after infection, assessed after 7 days, untreated 90%
Description: (§1) The active ingredients, separately or together, were formulated as a 10% emulsion in a mixture of 70% by weight of […], 20% by weight of Nekanil® LN (Lutensol® AP6, wetter having emulsifying and dispersant action, based on ethoxylated alkylphenols) and 10% by weight of Wettol® EM (non-ionic emulsifier based on ethoxylated castor oil) and diluted with water to give the desired concentration.
Leaves of wheat seedling cv. “Kanzler” grown in pots were dusted with leaf rust spores (Puccinia recondita). The pots were then placed for 24 hours into a chamber with high atmospheric humidity (90 to 95%) and 20 to 22° C. During this time, the spores germinated and the germ tubes penetrated the leaf tissue. Next day, the infected plants were sprayed to runoff with an aqueous active ingredient preparation made with a stock solution consisting of 10% of active ingredient, 63% of cyclohexanone and 27% of emulsifier. After the spray coating had dried on, the test plants were grown in the greenhouse for 7 days at temperatures between 20 and 22° C. and a relative atmospheric humidity of 65 to 70%. The extent of rust development on the leaves was then determined.

[2] = system: Plasmopara viticola; experiment: Activity against Plasmopara viticola on grape leaves (long-term action); type: in vivo; settings: 16 ppm, grape leaves inoculated 7 days after spraying; untreated 85%
Description: as §1
Leaves of grapes cv. “Müller-Thurgaul” in pots were sprayed to runoff with aqueous active ingredient preparations made with a stock solution of 10% active ingredient, 63% cyclohexanone and 27% of emulsifier. In order to be able to assess the long-term action of the substances, the spray coating was allowed to dry off and the plants were then placed in the greenhouse for 7 days. Only then were the leaves inoculated with an aqueous zoospore suspension of Plasmopara viticola. Then, the vines were first placed for 48 hours into a water-vapor-saturated chamber at 24° C. and then for 5 days in the greenhouse at temperatures between 20 and 30° C. After this time, the plants were returned to a humid chamber for 16 hours to accelerate sporangiophore eruption for 16 hours. The extent of the disease development on the undersides of the leaves was then determined visually.

Structure (SMILES) | disease level (extent of rust development on the leaves) [1] | disease level (undersides of the leaves) [2]
COC=C(C(=O)OC)c1ccccc1CON=C(C)C(=NOC)C1CCC(OC)CC1 (stereo not drawn) [Compound I-7] | ≤ 5% | –
CNC(=O)C(=NOC)c1ccccc1CON=C(C)C(=NOC)C1CCC(C)CC1 (stereo not drawn) [Compound I-2] | ≤ 5% | ≤ 3%
